Results are given in words; binding and its absence hold for the method and conditions named. Some results given as binding are weak or reduced against the parent protein; the word gives no strength. Where a sequence is shown, tags or fusion partners need not be part of it.
Assays:
[1] = target: chick Hairy1 protein, whole (two-hybrid fusion) (chick (Gallus gallus)) (UniProt O57337); assay: two-hybrid; confirmation by mating: baits (Gal4 DNA-BD, pGBKT7) in Y187, preys (Gal4 AD, pGADT7) in AH109; growth of 20-fold serial dilutions on SD-Leu/-Trp/-His/-Ade/X-alpha-gal medium
[2] = target: chick Hairy1 protein, whole (two-hybrid fusion) (chick (Gallus gallus)) (UniProt O57337); assay: two-hybrid; quantification of reporter beta-galactosidase activity in liquid culture, normalised to the Hairy1/Hairy1 interaction

B1: chick Hairy1 protein, whole (two-hybrid fusion) (protein, UniProt O57337 1-290)
chain: MPADTGMEKPTASPIAGAPASASHTPDKPRSASEHRKSSKPIMEKRRRARINESLGQLKMLILDALKKDSSRHSKLEKADILEMTVKHLRNLQRAQMAAALSADPSVLGKYRAGFNECMNEVTRFLSTCEGVNADVRARLLGHLSACLGQIVAMNYLPPPPAGQPAHLAQPLHVQLPPTTTGAVPVPCKLEPTEALSPKVYGGFQLVPATDGQFAFLIPNPAFPPGSGPVIPLYANANVPVSTAWRSSERVHPPAGIPGAGLDIIWARVVPASQAGSPIAERREAVWRPW
For B1, the binding [1] was “binds” and the binding [2] was “binds”.

From PMC1933423
